Test results from PubChem BioAssay AID504834 (National Center for Advancing Translational Sciences (NCATS), 2011).
The whole screen tested about 320,000 compounds, of which about 22,000 (6.9%) were called active. The shares of active, inactive and inconclusive entries below differ from those in the screen. Calls come from the whole dose curve; as a rule, active = well fitted inhibition curve with a large enough effect; inconclusive = small, poorly fitted or top-dose-only effect, or another doubt; inactive = no such curve, though single readings can be large or run the other way. Where the call is inconclusive, the potency comes from a doubtful curve fit.

Test: Primary qHTS for delayed death inhibitors of the malarial parasite plastid, 96 hour incubation
Conditions: P. falciparum luciferase reporter growth; series mostly up to 28.7 µM
In short: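 P. falciparum expressing integrated firefly luciferase grown in erythrocytes (2% hematocrit, 0.05% parasitemia final) with compounds for 96 hours at 37 C, 5% CO2. Growth inhibition read as loss of luminescence after adding luciferase detection reagent.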
Potency is the fitted concentration of half-maximal effect.

| Compound | Potency |
| --- | --- |
| Cc1cc(=O)oc2c3c(cc(OCC(=O)NCc4cccnc4)c12)OC(C)(C)CC3 | inconclusive: 10.4 µM [inhibitor, partial curve, poor fit] |
| CCc1cc2c(Sc3nc4ccccc4s3)ncnc2s1 | inconclusive: 1.04 µM [inhibitor, full curve, poor fit] |
| O=C(COc1ccc(S(=O)(=O)NC2CCCCC2)cc1Cl)N1CCN(c2ccccc2)CC1 | inconclusive: 16.5 µM [inhibitor, single point] |
| COC(=O)CN(C)C(=O)CC1C(=O)NCCN1CC(C)(C)C (centres undefined) | inactive |
| COCCCNC(=S)N(CCCO)Cc1cc2cc3c(cc2[nH]c1=O)OCO3 | inactive |
| COc1ccccc1-c1cnn2c(NC3CCCC3)cc(C)nc12 | inconclusive: 18.5 µM [inhibitor, partial curve, poor fit] |
| O=C(Cn1c(=O)cnc2ccccc21)Nc1cccc(S(=O)(=O)N2CCOCC2)c1 | inconclusive: 10.4 µM [inhibitor, single point] |
| Cc1cc(C)cc(NC(=O)CSc2nnc(CN3CCOCC3)n2C)c1 | inconclusive: 8.28 µM [inhibitor, partial curve, poor fit] |
| Cc1ccc(NC2=NCC(=O)N2C2CCCC2)cc1 | active: 5.86 µM |
| CC(C)CNS(=O)(=O)c1ccc(CCC(=O)Nc2ccc3c(c2)OCO3)cc1 | active: 4.15 µM |
| O=C(CCNC(=O)c1ccco1)Nc1ccccc1N1CCOCC1 | inactive |
| Cc1cc(C)c2oc(=O)cc(CN3CCOCC3)c2c1 | inactive |
| CCOc1ccc(NC(=S)NNC(=S)Nc2cccc(C(F)(F)F)c2)cc1 | active: 13.1 µM |
| NS(=O)(=O)c1ccc(NC2=CC(=O)C(=O)c3ccccc32)cc1 | active: 10.4 µM |
| CCC(c1nnc(SCC(=O)Nc2ccc(Cl)cc2C(F)(F)F)n1C1CCCCC1)N(C)C (centres undefined) | inconclusive: 18.5 µM [inhibitor, partial curve, poor fit] |
| COP(=O)(CC(=O)c1ccccc1)CC(=O)c1ccccc1 | inactive |
| COc1cccc(CNC(=O)c2cc3ccccn3n2)c1 | inconclusive: 11.7 µM [inhibitor, partial curve, poor fit] |
| CN(C(=O)C(C)(C)C)c1ccc(OCC(=O)N2CCc3ccccc3C2)cc1 | inconclusive: 18.5 µM [inhibitor, single point] |
| COc1ccc(CC(=O)Nc2nnc(C(C)(C)C)s2)cc1OC | active: 4.65 µM |
| CC(CCc1ccccc1)NCC(O)c1ccc(O)c(C(N)=O)c1 (centres undefined) | inconclusive: 0.928 µM [inhibitor, partial curve, poor fit] |
| O=c1oc(CCCO)cc2ccc(/C=C/c3cccc([N+](=O)[O-])c3)cc12 | inactive |
| COc1ccc(CCNc2cc(-c3ccccc3)nc3ncnn23)cc1 | inconclusive: 18.5 µM [inhibitor, single point] |

Filtered by structure: those above containing fluorine.

| Compound | Potency |
| --- | --- |
| CCOc1ccc(NC(=S)NNC(=S)Nc2cccc(C(F)(F)F)c2)cc1 | active: 13.1 µM |
| CCC(c1nnc(SCC(=O)Nc2ccc(Cl)cc2C(F)(F)F)n1C1CCCCC1)N(C)C (centres undefined) | inconclusive: 18.5 µM [inhibitor, partial curve, poor fit] |

(cont.)

| Compound | Potency |
| --- | --- |
| CCOC(=O)N1CCC(NCCNC(=O)c2cccc(F)c2)CC1 | inactive |
| O=C(COc1ccc(Cl)cc1Cl)c1ccc[nH]1 | inactive |
| Cc1ccc(S(=O)(=O)N2CCOCC2)cc1NC(=O)c1cc(-c2ccccn2)nc2ccccc12 | inconclusive: 6.57 µM [inhibitor, partial curve, poor fit] |
| CCCCN=C1NN=C(c2cc3ccccc3o2)CS1 | active: 13.1 µM |
| CC1CC(C)CN(S(=O)(=O)c2ccc(NC(=O)CCNC(=O)c3ccc([N+](=O)[O-])cc3)cc2)C1 (centres undefined) | inconclusive: 10.4 µM [inhibitor, partial curve, poor fit] |
| CN(Cc1ccccc1)C1=CC(=[N+]2CCCC2)CC(C)(C)C1 | active: 0.586 µM |
| CCOc1ccccc1NC(=O)COC(=O)c1ccccc1SCC(=O)N1CCCC1 | inconclusive: 10.4 µM [inhibitor, partial curve, poor fit] |
| Cc1cc(NC(=O)CN2C(=O)CC(c3ccco3)Sc3ccccc32)no1 (centres undefined) | active: 11.7 µM |
| COc1ccc(-n2nc(C(=O)NCC(=O)N3CCN(c4ccccn4)CC3)c3ccccc3c2=O)cc1 | inconclusive: 13.1 µM [inhibitor, single point] |
| O=C(CN1CCN(Cc2ccc3c(c2)OCO3)CC1)c1c[nH]c2ccccc12 | inconclusive: 0.0329 µM [inhibitor, full curve, poor fit] |
| CCC(C)c1ccccc1NC(=O)C(C)N(C)Cc1cccc(OC)c1 (centres undefined) | inconclusive: 9.28 µM [inhibitor, single point] |
| C=C1C(=O)O[C@@H]2C[C@@H](C)[C@@H]3C=CC(=O)[C@@]3(C)[C@@H](O)[C@H]12 | active: 1.04 µM |
| CCNc1nc(NCC)n2c(SCC(=O)N3CC4(C)CC3CC(C)(C)C4)nnc2n1 (centres undefined) | inconclusive: 10.4 µM [inhibitor, single point] |
| O=C(NCCNC(=O)c1ccccc1Cl)c1ccco1 | inactive |
| CC1CCN(C(=O)C2CCC(CNc3c(N4CCCCC4)c(=O)c3=O)CC2)CC1 (centres undefined) | inconclusive: 4.65 µM [inhibitor, partial curve, poor fit] |
| CC(=O)c1cccc(NC(=O)CN2CCc3cc4c(cc3C2)OCCCO4)c1 | inconclusive: 10.4 µM [inhibitor, partial curve, poor fit] |
| O=C(CCCCCn1c(=O)[nH]c2ccsc2c1=O)N1CCCCC1 | inconclusive: 7.38 µM [inhibitor, partial curve, poor fit] |
| On1c(-c2ccccc2)nc2ccc(Cl)cc21 | inconclusive: 18.5 µM [inhibitor, partial curve, poor fit] |
| CCOc1ccc(-c2csc(/C(C#N)=C\c3ccc(O)c([N+](=O)[O-])c3)n2)cc1 | active: 5.22 µM |
| CCCCn1c(N)c(N(CCOC)C(=O)CN(C)S(=O)(=O)c2ccc(Cl)cc2)c(=O)[nH]c1=O | inconclusive: 20.8 µM [inhibitor, single point] |
| CCCCNS(=O)(=O)c1ccc(NC(=O)Cc2ccccc2[N+](=O)[O-])cc1 | inconclusive: 18.5 µM [inhibitor, single point] |
| CC(=O)Nc1ccc(S(=O)(=O)NCC2CCC(C(=O)N3CCN(c4ccccn4)CC3)CC2)cc1 (centres undefined) | inconclusive: 0.37 µM [inhibitor, full curve, poor fit] |
